Results on 36 targets are retold here after the supplement of paper PMC12067093, “Discovery and optimisation of a covalent ligand for TRIM25 and its application to targeted protein ubiquitination” (Chemical Science, 2025).

Compound in the test: Cc1cc(ccc1-c1ccccc1)C(=O)N1CCCN(CC1)C(=O)CCl [compound 10]
Nature of the test: probe-labelled cysteine peptide fold change vs DMSO (competition) (log2 fold change); higher = less target engagement (more negative = stronger competition). The settings on record: THP-1, incubation time: 4 h.

Some of the results follow.
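Further: competitive profiling in live THP-1 cells: cysteine peptides tagged with an iodoacetamide desthiobiotin (IA-DTB) probe, intensity after compound treatment relative to DMSO-treated cells.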

As for “NUDT21_O43809_144_QDGVLQDWVIDDCIGNWWR (UniProt O43809)”, the “probe-labelled cysteine peptide fold change” value worked out at 0.404 (10 µM) and 0.914 (50 µM).

“OGA_O60502_181_SFALLFDDIDHNMCAADK (UniProt O60502)”: the “probe-labelled cysteine peptide fold change” value runs as follows: (10 µM) 0.121; (50 µM) 0.0336.

As for “NUDCD2_Q8WVJ2_45_AQDIQCGLQSR (UniProt Q8WVJ2)”, the “probe-labelled cysteine peptide fold change” value came to 0.108 (10 µM) and 0.0196 (50 µM).

Take “OAT_P04181_93_YFDFLSSYSAVNQGHCHPK (UniProt P04181)”: the “probe-labelled cysteine peptide fold change” value by setting is: (10 µM) 0.0237; (50 µM) 0.0378.

In the case of “NUP210_Q8TEM1_1611_EVIQALHPETLISCQSQFK (UniProt Q8TEM1)”, the “probe-labelled cysteine peptide fold change” value is -0.0849 (10 µM) and 0.506 (50 µM).

Consider “NUP160_Q12769_1124+1131_QGNCYLAALNCLR (UniProt Q12769)”, for which the “probe-labelled cysteine peptide fold change” value is, setting by setting: (10 µM) 0.056; (50 µM) -0.0329.

As for “OLA1_Q9NTK5_187_LKPEYDIMCK (UniProt Q9NTK5)”, the “probe-labelled cysteine peptide fold change” value by setting is: (10 µM) -0.186; (50 µM) -0.101.

As for “NUDCD1_Q96RS6_7_MEVAANCSLR (UniProt Q96RS6)”, the “probe-labelled cysteine peptide fold change” value (10 µM) worked out at 0.322 and the “probe-labelled cysteine peptide fold change” value (50 µM) is -0.184.

Consider “NUBP1_P53384_235_VKLPIIGVVENMSGFICPK (UniProt P53384)”, for which the “probe-labelled cysteine peptide fold change” value is 0.135 (10 µM) and -0.223 (50 µM).

Take “ODF2_Q5BJF6_708_ECGTLAR (UniProt Q5BJF6)”: the “probe-labelled cysteine peptide fold change” value reads like this: (10 µM) 0.497; (50 µM) 0.468.

As for “NUMB_P49757_58_GMHICEDAVKR (UniProt P49757)”, the “probe-labelled cysteine peptide fold change” value reads like this: (10 µM) -0.0579; (50 µM) -0.352.

With “NUDT16L1_Q9BRJ7_171_CQLLFALK (UniProt Q9BRJ7)”, the “probe-labelled cysteine peptide fold change” value is -0.0753 (10 µM) and 0.00939 (50 µM).

With “NUS1_Q96E22_164_QQQELLGLDCSK (UniProt Q96E22)”, the “probe-labelled cysteine peptide fold change” value was 0.192 (10 µM) and -0.0667 (50 µM).

As for “NUDT8_Q8WV74_39_ARPASAAVLVPLCSVR (UniProt Q8WV74)”, the “probe-labelled cysteine peptide fold change” value stood at 0.0823 (10 µM) and 0.138 (50 µM).

As to “NUP153_P49790_1065_SASVAPFTCK (UniProt P49790)”, the “probe-labelled cysteine peptide fold change” value by setting is: (10 µM) -0.179; (50 µM) -0.383.

With “NXF1_Q9UBU9_373_LDGHELPPPIAFDVEAPTTLPPCK (UniProt Q9UBU9)”, the “probe-labelled cysteine peptide fold change” value is -0.00163 (10 µM) and 0.112 (50 µM).

As for “OGFOD1_Q8N543_154_YEFTDALLCHDDELEGRR (UniProt Q8N543)”, the “probe-labelled cysteine peptide fold change” value is, setting by setting: (10 µM) -0.116; (50 µM) 0.095.

On to “NUP155_O75694_917_ISNQVDLSNVCAQYR (UniProt O75694)”, for which the “probe-labelled cysteine peptide fold change” value runs as follows: (10 µM) -0.109; (50 µM) 0.0618.

With “NUP155_O75694_551_LHQEDQACATCLILACSTAACDR (UniProt O75694)”, the “probe-labelled cysteine peptide fold change” value was 0.173 (10 µM) and -0.0226 (50 µM).

In the case of “OCRL_Q01968_104_RFEIPDEEHCLK (UniProt Q01968)”, the “probe-labelled cysteine peptide fold change” value came to 0.0107 (10 µM) and 0.0227 (50 µM).

As to “NUDT6_P53370_44_NPPVGACDLQGELDR (UniProt P53370)”, the “probe-labelled cysteine peptide fold change” value by setting is: (10 µM) -0.344; (50 µM) -0.949.

For the target “NVL_O15381_431_FDREICLGIPDEASR (UniProt O15381)”, the “probe-labelled cysteine peptide fold change” value (10 µM) is -0.0463 and the “probe-labelled cysteine peptide fold change” value (50 µM) turned out to be 0.00696.

As for “OAS3_Q9Y6K5_350_AGCSGLGHPIQLDPNQK (UniProt Q9Y6K5)”, the “probe-labelled cysteine peptide fold change” value is -0.129 (10 µM) and -0.378 (50 µM).

Consider “NUP133_Q8WUM0_1075_LEILCK (UniProt Q8WUM0)”, for which the “probe-labelled cysteine peptide fold change” value reads like this: (10 µM) 0.221; (50 µM) 0.251.

Regarding “OGT_O15294_417_EMQDVQGALQCYTR (UniProt O15294)”, the “probe-labelled cysteine peptide fold change” value reads like this: (10 µM) -0.0642; (50 µM) -0.366.

For the target “NUP155_O75694_561_LHQEDQACATCLILACSTAACDR (UniProt O75694)”, the “probe-labelled cysteine peptide fold change” value is -0.0434 (10 µM) and 0.113 (50 µM).

For the target “NUMA1_Q14980_658_KVEELQACVETAR (UniProt Q14980)”, the “probe-labelled cysteine peptide fold change” value is, setting by setting: (10 µM) -0.0196; (50 µM) -0.0926.

Take “NXF1_Q9UBU9_143_CSVPFTPIEFHYENTR (UniProt Q9UBU9)”: the “probe-labelled cysteine peptide fold change” value (10 µM) is -0.0336 and the “probe-labelled cysteine peptide fold change” value (50 µM) was -0.108.

As to “NUDCD1_Q96RS6_376_DSAQCAAIAER (UniProt Q96RS6)”, the “probe-labelled cysteine peptide fold change” value was -0.311 (10 µM) and -0.677 (50 µM).

For “NUDT7_P0C024_72_RAPGEVCFPGGK (UniProt P0C024)”, the “probe-labelled cysteine peptide fold change” value is -0.0211 (10 µM) and -0.558 (50 µM).

“OGT_O15294_472_LKPDFPDAYCNLAHCLQIVCDWTDYDER (UniProt O15294)”: the “probe-labelled cysteine peptide fold change” value reads like this: (10 µM) 0.115; (50 µM) 0.163.

Consider “NUP88_Q99567_447+454_CFVEHILCTKPLPCR (UniProt Q99567)”, for which the “probe-labelled cysteine peptide fold change” value reads like this: (10 µM) -0.19; (50 µM) -0.613.

In the case of “OAS2_P29728_652_TRPVILDPAEPTGDVGGGDRWCWHLLAK (UniProt P29728)”, the “probe-labelled cysteine peptide fold change” value (10 µM) was -0.246 and the “probe-labelled cysteine peptide fold change” value (50 µM) is -0.237.

For the target “NVL_O15381_626_ALGLVTPAGVLLAGPPGCGK (UniProt O15381)”, the “probe-labelled cysteine peptide fold change” value by setting is: (10 µM) 0.356; (50 µM) 0.23.

Regarding “NXF3_Q9H4D5_214_LAMNQQCDVSQEALDIQR (UniProt Q9H4D5)”, the “probe-labelled cysteine peptide fold change” value runs as follows: (10 µM) -0.0938; (50 µM) -0.107.

As for “NVL_O15381_687_NSAPCVIFFDEVDALCPR (UniProt O15381)”, the “probe-labelled cysteine peptide fold change” value by setting is: (10 µM) 0.105; (50 µM) 0.172.
